Source: paper PMC8639922, “KSHV transactivator-derived small peptide traps coactivators to attenuate MYC and inhibits leukemia and lymphoma cell growth” (Communications Biology, 2021)
No constants are given. Whether binding was seen depends on the method and setting. In cells and extracts the contact can be indirect. Some binding calls cover weakened binding; strength is not graded here.

Chains of the proteins cited; added tags and fusions are not shown.
UniProt F5HCV3: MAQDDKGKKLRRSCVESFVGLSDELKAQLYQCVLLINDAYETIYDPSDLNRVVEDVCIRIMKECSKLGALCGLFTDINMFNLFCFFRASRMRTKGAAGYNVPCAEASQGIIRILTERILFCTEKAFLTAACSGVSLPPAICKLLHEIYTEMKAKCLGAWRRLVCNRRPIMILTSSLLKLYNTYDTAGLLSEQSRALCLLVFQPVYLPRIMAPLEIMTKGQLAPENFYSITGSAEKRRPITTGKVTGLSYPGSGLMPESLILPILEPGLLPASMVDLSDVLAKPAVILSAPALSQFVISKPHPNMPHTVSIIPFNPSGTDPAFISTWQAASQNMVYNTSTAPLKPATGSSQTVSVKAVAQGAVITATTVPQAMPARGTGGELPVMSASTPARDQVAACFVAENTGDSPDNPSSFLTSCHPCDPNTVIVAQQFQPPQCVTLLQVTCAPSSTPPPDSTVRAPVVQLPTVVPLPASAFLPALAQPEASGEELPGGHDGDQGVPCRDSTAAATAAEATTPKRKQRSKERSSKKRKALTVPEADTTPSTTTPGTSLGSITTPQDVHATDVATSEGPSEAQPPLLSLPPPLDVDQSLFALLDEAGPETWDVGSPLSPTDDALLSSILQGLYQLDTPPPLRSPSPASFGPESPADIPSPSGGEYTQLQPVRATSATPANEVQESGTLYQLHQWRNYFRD
UniProt Q15596: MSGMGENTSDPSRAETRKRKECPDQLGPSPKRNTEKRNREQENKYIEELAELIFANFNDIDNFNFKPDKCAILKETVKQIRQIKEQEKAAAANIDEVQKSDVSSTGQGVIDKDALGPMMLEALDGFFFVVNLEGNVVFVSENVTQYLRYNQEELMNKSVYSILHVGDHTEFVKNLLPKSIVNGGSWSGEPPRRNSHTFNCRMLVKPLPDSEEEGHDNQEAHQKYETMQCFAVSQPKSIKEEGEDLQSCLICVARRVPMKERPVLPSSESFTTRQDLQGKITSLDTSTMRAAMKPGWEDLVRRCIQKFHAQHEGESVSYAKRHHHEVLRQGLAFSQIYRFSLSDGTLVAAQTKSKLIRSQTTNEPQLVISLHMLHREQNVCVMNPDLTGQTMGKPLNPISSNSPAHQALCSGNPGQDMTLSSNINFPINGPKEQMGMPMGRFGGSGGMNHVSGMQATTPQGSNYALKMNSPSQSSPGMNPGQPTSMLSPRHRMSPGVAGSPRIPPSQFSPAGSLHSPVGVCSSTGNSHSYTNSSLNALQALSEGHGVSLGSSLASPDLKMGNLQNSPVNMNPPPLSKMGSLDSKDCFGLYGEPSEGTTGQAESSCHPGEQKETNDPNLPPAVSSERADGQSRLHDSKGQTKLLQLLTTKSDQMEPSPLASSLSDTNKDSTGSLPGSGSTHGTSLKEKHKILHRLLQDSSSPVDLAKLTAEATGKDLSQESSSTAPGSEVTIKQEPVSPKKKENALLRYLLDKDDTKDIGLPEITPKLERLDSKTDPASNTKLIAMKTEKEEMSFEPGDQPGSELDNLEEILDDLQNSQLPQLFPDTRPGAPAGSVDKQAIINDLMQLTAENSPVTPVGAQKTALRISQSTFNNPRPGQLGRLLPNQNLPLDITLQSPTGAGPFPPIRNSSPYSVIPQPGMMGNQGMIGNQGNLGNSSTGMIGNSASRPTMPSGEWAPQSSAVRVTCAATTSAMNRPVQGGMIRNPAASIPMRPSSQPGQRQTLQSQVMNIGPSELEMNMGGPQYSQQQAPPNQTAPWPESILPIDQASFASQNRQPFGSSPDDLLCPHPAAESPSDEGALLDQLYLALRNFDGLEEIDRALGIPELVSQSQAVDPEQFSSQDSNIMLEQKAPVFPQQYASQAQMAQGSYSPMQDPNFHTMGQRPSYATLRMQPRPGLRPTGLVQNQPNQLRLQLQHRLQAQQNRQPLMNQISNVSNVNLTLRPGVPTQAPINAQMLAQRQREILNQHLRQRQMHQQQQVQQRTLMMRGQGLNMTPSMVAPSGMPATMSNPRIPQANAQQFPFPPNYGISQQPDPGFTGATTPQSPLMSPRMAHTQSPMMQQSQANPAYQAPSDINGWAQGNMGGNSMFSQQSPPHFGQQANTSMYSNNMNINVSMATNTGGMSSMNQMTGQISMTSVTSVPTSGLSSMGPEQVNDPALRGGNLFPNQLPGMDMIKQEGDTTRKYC

Biological target: Flag-tagx3-HA-tagx3 (F3H3)-K-Rta, KSHV replication and transactivation protein (Kaposi's sarcoma-associated herpesvirus (human herpesvirus 8)) (UniProt F5HCV3)
Assay: co-IP

For “Nuclear receptor coactivator 2 (from UniProt Q15596 1-1464)”, the binding was “binds”.
